Laboratory results taken from PMC8122511.
Results are given in words; binding and its absence hold for the method and conditions named. In cells and extracts the contact can be indirect. Some binding calls cover weakened binding; strength is not graded here.

Protein sequences, listed by entry. Tags and fused reporters are not part of them.
UniProt P08047: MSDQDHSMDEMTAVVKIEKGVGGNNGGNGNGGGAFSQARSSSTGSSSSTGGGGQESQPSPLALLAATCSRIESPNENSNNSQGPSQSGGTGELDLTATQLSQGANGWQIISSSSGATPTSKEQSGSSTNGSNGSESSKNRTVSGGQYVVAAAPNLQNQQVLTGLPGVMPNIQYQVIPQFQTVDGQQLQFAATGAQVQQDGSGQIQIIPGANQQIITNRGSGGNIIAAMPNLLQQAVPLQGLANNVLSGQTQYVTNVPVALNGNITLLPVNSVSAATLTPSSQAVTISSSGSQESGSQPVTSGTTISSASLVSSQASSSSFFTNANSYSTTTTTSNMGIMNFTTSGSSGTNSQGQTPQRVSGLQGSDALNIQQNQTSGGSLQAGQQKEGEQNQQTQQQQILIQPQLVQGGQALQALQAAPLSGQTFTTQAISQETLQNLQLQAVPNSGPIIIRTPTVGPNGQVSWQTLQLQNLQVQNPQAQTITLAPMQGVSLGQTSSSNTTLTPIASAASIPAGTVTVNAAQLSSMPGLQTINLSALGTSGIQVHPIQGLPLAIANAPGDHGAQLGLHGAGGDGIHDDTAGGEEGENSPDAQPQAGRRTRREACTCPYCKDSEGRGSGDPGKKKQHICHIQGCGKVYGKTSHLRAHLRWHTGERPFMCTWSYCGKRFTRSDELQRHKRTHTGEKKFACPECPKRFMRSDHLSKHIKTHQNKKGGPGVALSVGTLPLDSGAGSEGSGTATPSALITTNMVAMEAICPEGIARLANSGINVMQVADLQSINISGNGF

Target: Sp1 (human (endogenous in H1975)) (UniProt P08047)
Assay: co-IP; precleared whole cell lysates (250-500 µg) of H1975 parental cells and H1975 tumor spheres, incubated overnight at 4 °C with anti-Sp1 (D4C3) or anti-p53 (DO-1) antibody, recovered on Protein A affinity gel, western blot

binding: binds
B1: Hey1 (protein, UniProt Q9Y5J3 1-304)
chain: MKRAHPEYSSSDSELDETIEVEKESADENGNLSSALGSMSPTTSSQILARKRRRGIIEKRRRDRINNSLSELRRLVPSAFEKQGSAKLEKAEILQMTVDHLKMLHTAGGKGYFDAHALAMDYRSLGFRECLAEVARYLSIIEGLDASDPLRVRLVSHLNNYASQREAASGAHAGLGHIPWGTVFGHHPHIAHPLLLPQNGHGNAGTTASPTEPHHQGRLGSAHPEAPALRAPPSGSLGPVLPVVTSASKLSPPLLSSVASLSAFPFSFGSFHLLSPNALSPSAPTQAANLGKPYRPWGTEIGAF
